Assay results published in PubChem BioAssay AID186 (DTP/NCI, 2004).
The mice bore no tumour; each value counts animals alive of those treated. Counts of survivors are from the toxicity check (mostly the fifth day) where no day follows; animals may have died later. Schedules are NCI's codes, taken here to give the interval after Q, in days (D) or hours (H), and the number of doses after X. Brackets with × count equal records among those shown. Some entries hold several experiments; the values are given in rising order.

Tested on: B6D2F1 mice, nontumored toxicity test, survival
Test: NCI In Vivo Anticancer Drug Screen. Data for tumor model Nontumored Animals (Toxicity Test) in B6D2F1 (BDF1) mice
Settings: vehicle: saline
[1] = dose: 8.0 mg/kg/injection, schedule: Q03HX024 (ip)
[2] = dose: 16.0 mg/kg/injection, schedule: Q03HX008 (ip)
[3] = dose: 16.0 mg/kg/injection, schedule: Q03HX024 (ip)
[4] = dose: 32.0 mg/kg/injection, schedule: Q01DX009 (ip)
[5] = dose: 32.0 mg/kg/injection, schedule: Q03HX008 (ip)
[6] = dose: 32.0 mg/kg/injection, schedule: Q03HX024 (ip)
[7] = dose: 64.0 mg/kg/injection, schedule: Q01DX009 (ip)
[8] = dose: 64.0 mg/kg/injection, schedule: Q01DX009 (oral)
[9] = dose: 64.0 mg/kg/injection, schedule: Q01DX009 (sc)
[10] = dose: 64.0 mg/kg/injection, schedule: Q03HX008 (ip)
[11] = dose: 64.0 mg/kg/injection, schedule: Q03HX024 (ip)
[12] = dose: 64.0 mg/kg/injection, schedule: Q04DX003 (ip)
[13] = dose: 128.0 mg/kg/injection, schedule: Q01DX001 (ip)
[14] = dose: 128.0 mg/kg/injection, schedule: Q01DX009 (ip)
[15] = dose: 128.0 mg/kg/injection, schedule: Q01DX009 (oral)
[16] = dose: 128.0 mg/kg/injection, schedule: Q01DX009 (sc)
[17] = dose: 128.0 mg/kg/injection, schedule: Q03HX008 (ip)
[18] = dose: 128.0 mg/kg/injection, schedule: Q03HX024 (ip)
[19] = dose: 128.0 mg/kg/injection, schedule: Q04DX003 (ip)
[20] = dose: 128.0 mg/kg/injection, schedule: Q08DX002 (ip)
[21] = dose: 256.0 mg/kg/injection, schedule: Q01DX001 (ip)
[22] = dose: 256.0 mg/kg/injection, schedule: Q01DX009 (ip)
[23] = dose: 256.0 mg/kg/injection, schedule: Q01DX009 (oral)
[24] = dose: 256.0 mg/kg/injection, schedule: Q01DX009 (sc)
[25] = dose: 256.0 mg/kg/injection, schedule: Q03HX008 (ip)
[26] = dose: 256.0 mg/kg/injection, schedule: Q04DX003 (ip)
[27] = dose: 256.0 mg/kg/injection, schedule: Q08DX002 (ip)
[28] = dose: 512.0 mg/kg/injection, schedule: Q01DX001 (ip)
[29] = dose: 512.0 mg/kg/injection, schedule: Q01DX009 (ip)
[30] = dose: 512.0 mg/kg/injection, schedule: Q01DX009 (oral)
[31] = dose: 512.0 mg/kg/injection, schedule: Q01DX009 (sc)
[32] = dose: 512.0 mg/kg/injection, schedule: Q04DX003 (ip)
[33] = dose: 512.0 mg/kg/injection, schedule: Q08DX002 (ip)
[34] = dose: 1024.0 mg/kg/injection, schedule: Q01DX001 (ip)
[35] = dose: 1024.0 mg/kg/injection, schedule: Q01DX009 (oral)
[36] = dose: 1024.0 mg/kg/injection, schedule: Q04DX003 (ip)
[37] = dose: 1024.0 mg/kg/injection, schedule: Q08DX002 (ip)
[38] = dose: 2048.0 mg/kg/injection, schedule: Q01DX001 (ip)

## O=C1C=CN(C2OC(CO)C(O)C2O)C(=O)C1 (configuration not stated)
[1]
  survivor count: 8 of 8
[2]
  survivor count: 8 of 8
dose: 16.0 mg/kg/injection, schedule: Q03HX016 (ip)
  survivor count: 8 of 8
[3]
  survivor count: 8 of 8
[4]
  survivor count: 8 of 8
dose: 32.0 mg/kg/injection, schedule: Q01DX009 (sc)
  survivor count: 7 of 7
[5]
  survivor count: 7 of 7
dose: 32.0 mg/kg/injection, schedule: Q03HX016 (ip)
  survivor count: 8 of 8
[6]
  survivor count: 8 of 8
[7]
  survivor count: 8 of 8
[8]
  survivor count: 8 of 8
[9]
  survivor count: 8 of 8
[10]
  survivor count: 8 of 8
dose: 64.0 mg/kg/injection, schedule: Q03HX016 (ip)
  survivor count: 8 of 8
[11]
  survivor count: 8 of 8
[12]
  survivor count: 8 of 8
[13]
  survivor count: 8 of 8
[14]
  survivor count: 8 of 8
[15]
  survivor count: 8 of 8
[16]
  survivor count: 8 of 8
[17]
  survivor count: 8 of 8
dose: 128.0 mg/kg/injection, schedule: Q03HX016 (ip)
  survivor count: 8 of 8
[18]
  survivor count: 8 of 8
[19]
  survivor count: 8 of 8
dose: 128.0 mg/kg/injection, schedule: Q04DX003 (oral)
  survivor count: 7 of 7 and 8 of 8
dose: 128.0 mg/kg/injection, schedule: Q04DX003 (sc)
  survivor count: 8 of 8
[20]
  survivor count: 8 of 8
[21]
  survivor count: 8 of 8
[22]
  survivor count: 8 of 8
[23]
  survivor count: 8 of 8
[24]
  survivor count: 8 of 8
[25]
  survivor count: 8 of 8
dose: 256.0 mg/kg/injection, schedule: Q03HX016 (ip)
  survivor count: 8 of 8
[26]
  survivor count: 8 of 8
dose: 256.0 mg/kg/injection, schedule: Q04DX003 (oral)
  survivor count: 8 of 8
dose: 256.0 mg/kg/injection, schedule: Q04DX003 (sc)
  survivor count: 8 of 8
[27]
  survivor count: 8 of 8
[28]
  survivor count: 8 of 8
[29]
  survivor count: 8 of 8
[30]
  survivor count: 8 of 8
[31]
  survivor count: 8 of 8
[32]
  survivor count: 8 of 8
dose: 512.0 mg/kg/injection, schedule: Q04DX003 (oral)
  survivor count: 7 of 7 and 8 of 8
dose: 512.0 mg/kg/injection, schedule: Q04DX003 (sc)
  survivor count: 8 of 8
[33]
  survivor count: 8 of 8
[34]
  survivor count: 8 of 8
[35]
  survivor count: 8 of 8
[36]
  survivor count: 8 of 8
dose: 1024.0 mg/kg/injection, schedule: Q04DX003 (oral)
  survivor count: 8 of 8
dose: 1024.0 mg/kg/injection, schedule: Q04DX003 (sc)
  survivor count: 8 of 8
[37]
  survivor count: 8 of 8
[38]
  survivor count: 8 of 8
dose: 2048.0 mg/kg/injection, schedule: Q04DX003 (oral)
  survivor count: 8 of 8
dose: 2048.0 mg/kg/injection, schedule: Q08DX002 (ip)
  survivor count: 8 of 8

## COc1cc2cc3c4cc(OC)c(OC)cc4cc[n+]3c(C)c2cc1OC
dose: 8.0 mg/kg/injection, schedule: Q03HX008 (ip)
  survivor count: 6 of 6
[1]
  survivor count: 6 of 6 (2×)
[2]
  survivor count: 6 of 6 (2×)
[3]
  survivor count: 6 of 6 (2×)
[4]
  survivor count: 6 of 6
[5]
  survivor count: 6 of 6 (2×)
[6]
  survivor count: 6 of 6 (2×)
dose: 64.0 mg/kg/injection, schedule: Q01DX001 (ip)
  survivor count: 6 of 6
[7]
  survivor count: 6 of 6 (2×)
[8]
  survivor count: 5 of 6
[9]
  survivor count: 6 of 6 (2×)
[10]
  survivor count: 5 of 6 and 6 of 6
[11]
  survivor count: 4 of 6 and 6 of 6
[12]
  survivor count: 6 of 6
dose: 64.0 mg/kg/injection, schedule: Q08DX002 (ip)
  survivor count: 6 of 6
dose: 102.4 mg/kg/injection, schedule: Q01DX009 (ip)
  survivor count: 1 of 6
dose: 102.4 mg/kg/injection, schedule: Q04DX003 (ip)
  survivor count: 6 of 6
[13]
  survivor count: 6 of 6 (2×)
[14]
  survivor count: 5 of 6 and 6 of 6
[15]
  survivor count: 6 of 6
[16]
  survivor count: 6 of 6 (2×)
[17]
  survivor count: 6 of 6 (2×)
[18]
  survivor count: 6 of 6 (2×)
[19]
  survivor count: 6 of 6 (2×)
[20]
  survivor count: 6 of 6 (2×)
dose: 204.8 mg/kg/injection, schedule: Q08DX002 (ip)
  survivor count: 6 of 6
[21]
  survivor count: 5 of 6 and 6 of 6
[22]
  survivor count: 6 of 6 (2×)
[23]
  survivor count: 6 of 6
[24]
  survivor count: 6 of 6 (2×)
[25]
  survivor count: 3 of 6
dose: 256.0 mg/kg/injection, schedule: Q03HX024 (ip)
  survivor count: 3 of 6
[26]
  survivor count: 6 of 6 (2×)
[27]
  survivor count: 5 of 6 and 6 of 6
[28]
  survivor count: 6 of 6 (2×)
[29]
  survivor count: 4 of 6 (2×)
[30]
  survivor count: 6 of 6
[31]
  survivor count: 5 of 6 and 6 of 6
[32]
  survivor count: 6 of 6 (2×)
[33]
  survivor count: 6 of 6 (2×)
[34]
  survivor count: 5 of 6 and 6 of 6
[35]
  survivor count: 6 of 6
dose: 1024.0 mg/kg/injection, schedule: Q01DX009 (sc)
  survivor count: 6 of 6 (2×)
[36]
  survivor count: 6 of 6
[37]
  survivor count: 6 of 6 (2×)
[38]
  survivor count: 5 of 6
dose: 2048.0 mg/kg/injection, schedule: Q01DX009 (sc)
  survivor count: 6 of 6
dose: 2048.0 mg/kg/injection, schedule: Q04DX003 (ip)
  survivor count: 3 of 6
